Assay results reported in PubChem BioAssay AID1487 (National Center for Advancing Translational Sciences (NCATS), 2009).
The list shows a part of the results. Further columns of the screen follow, without active or inactive calls. The list favours compounds with an active or inconclusive main result. Potencies come from curve fits of mixed quality, noted in brackets.

Assay: qHTS Assay for Modulators of Lamin A Splicing
Details: HeLa LMNA splicing GFP/RFP minigene ratio, 48 h
Outline: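 S3 HeLa stable clones carrying a lamin A-EGFP splicing minigene plus DsRed2 were seeded at 600 cells/well in Opti-MEM with 2% FBS, pin-dosed and incubated 48 h at 37°C. Acumen cytometry (488 nm) gave the GFP/RFP total-intensity ratio.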

[1] = measured here: GFP splicing reporter channel
[2] = measured here: RFP viability control channel

## Cc1ccc(CNCc2cc3c(C(C)(C)C)nn(-c4ccccc4)c3[nH]c2=O)cc1
[1]
  AC50: 11.2 µM [rising, single point]
[2]
  AC50: 12.6 µM [rising, single point]

## C/C(CCc1oc2ccccc2c1-c1ccc(C)o1)=N/O
[1]
  AC50: 12.6 µM [rising, partial curve, poor fit]
[2]
  AC50: 25.1 µM [rising, single point]

## CC(C)(C)n1nnnc1C(c1cccs1)N(Cc1ccccc1)Cc1cccnc1 (configuration not stated)
[1]
  AC50: 11.2 µM [rising, partial curve, poor fit]
[2]
  AC50: 20 µM [rising, single point]

## O=c1c2cnn(-c3ccccc3)c2nc(-c2cccs2)n1-c1cccc(Cl)c1
[2]
  AC50: 6.31 µM [rising, partial curve]

## Cc1nn(C)cc1/C=C/C(=O)c1ccc(O)cc1
[2]
  AC50: 22.4 µM [rising, single point]

## Cc1ccc(C(=O)Nc2cc(-c3ccn[nH]3)c(C)n(N)c2=O)cc1
[2]
  AC50: 0.0224 µM [falling, full curve, poor fit]

## N#C[C@H]1[C@H](c2ccccc2)[C@](C#N)(C(=O)c2ccccc2)[C@@H]2C=Cc3ccccc3N21
[1]
  AC50: 3.55 µM [falling, partial curve]
[2]
  AC50: 3.98 µM [falling, partial curve]

## Cc1ccc(NC(=O)CSc2nc(-c3ccco3)cc(C(F)(F)F)n2)cc1C
[2]
  AC50: 2.24 µM [rising, full curve]

## COc1ccc(-c2nn(-c3ccccc3)cc2/C=C/C(=O)OCC(=O)Nc2cccc(C#N)c2)cc1
[1]
  AC50: 0.501 µM [falling, partial curve, poor fit]

## CCOC(=O)c1csc(NC(=O)CCSc2ccccc2)n1
[2]
  AC50: 1.41 µM [falling, full curve]

## CC(C)(C)NS(=O)(=O)c1ccc(OCC(=O)NCc2ccco2)cc1
[1]
  AC50: 0.224 µM [rising, full curve, poor fit]

## CCCCNC(=S)N(C)/N=C/c1c(C)[nH]c2ccccc12
[2]
  AC50: 35.5 µM [rising, single point]

## ON=C1/C(=N\O)CC2(C/C1=N/O)OCCO2
[1]
  AC50: 12.6 µM [rising, single point]
[2]
  AC50: 17.8 µM [rising, single point]

## Cc1cccc(NC(=O)CSc2nc(=O)n(Cc3cccnc3)c3c2CCC3)c1
[1]
  AC50: 0.00891 µM [falling, full curve, poor fit]

## CC1CC(C)CN(C(=S)Nc2ccc(SC(F)F)cc2)C1 (configuration not stated)
[2]
  AC50: 22.4 µM [rising, single point]

## COc1c(C(=O)NCCSC(C)(C)C)ccc2ccccc12
[1]
  AC50: 11.2 µM [rising, partial curve, poor fit]
[2]
  AC50: 10 µM [rising, partial curve, poor fit]

## COc1cccc(C(=O)N(Cc2nc(-c3ccc(C)cc3)no2)C(C)C)c1
[2]
  AC50: 22.4 µM [rising, partial curve, poor fit]

## Cc1nc2ccccc2cc1C(=O)N/N=C/c1ccc([N+](=O)[O-])cc1
[1]
  AC50: 4.47 µM [rising, partial curve]

## COC(c1ccccc1)c1nnc(CCC(=O)N(C)Cc2cccc(-n3cccn3)c2)o1 (configuration not stated)
[2]
  AC50: 0.0251 µM [falling, full curve, poor fit]

## N#C/C(=C\c1ccc(-c2ccc(C(=O)O)cc2)o1)c1nc2ccccc2[nH]1
[2]
  AC50: 11.2 µM [rising, single point]

## Cc1cc(C)n(CC(O)COc2cccc(OCC(O)Cn3nc(C)cc3C)c2)n1 (configuration not stated)
[2]
  AC50: 12.6 µM [rising, single point]

## Cc1ccc(-n2c(-c3ccccc3)c[n+]3c2CCc2ccccc2-3)c(C)c1
[2]
  AC50: 35.5 µM [rising, single point]

## CCOc1ccc2ccccc2c1C(=O)N1CCN(c2ccccc2)CC1
[2]
  AC50: 12.6 µM [rising, single point]

## COc1ccc(NC(=O)C(c2ccccc2)N(C)C(=O)c2ccc(=O)[nH]c2)cc1 (configuration not stated)
[2]
  AC50: 0.00562 µM [falling, full curve, poor fit]

## O=c1c2cnn(-c3ccccc3)c2ncn1Cc1ccccn1
[2]
  AC50: 20 µM [rising, single point]

## CC(Sc1ncnc2ccccc12)C(=O)Nc1ccc2c(c1)OCO2 (configuration not stated)
[1]
  AC50: 15.8 µM [falling, single point]

## Cc1nn(Cc2c(Cl)cccc2Cl)c(Cl)c1/C=N/NC(=O)c1cccnc1
[1]
  AC50: 0.501 µM [rising, full curve, poor fit]
[2]
  AC50: 0.0891 µM [rising, full curve, poor fit]

## COc1ccc(N2CCN(C(=O)c3nn(-c4ccc(C)cc4)c(=O)n(C)c3=O)CC2)cc1
[2]
  AC50: 3.55 µM [falling, partial curve, poor fit]

## Cc1cc(O)ccc1C1(c2ccc(O)cc2C)OC(=O)c2ccccc21
[2]
  AC50: 22.4 µM [rising, single point]

## COc1cc2ncc3c(-c4ccccc4)nn(-c4ccc(C)cc4)c3c2cc1OC
[1]
  AC50: 35.5 µM [falling, single point]
[2]
  AC50: 35.5 µM [falling, single point]

## Cc1cc(C)cc(NC(=O)N2CCCC2C(=O)NCc2ccco2)c1 (configuration not stated)
[1]
  AC50: 6.31 µM [rising, single point]

## CSC1=NC2(CCCCC2)CC12C=CC(=O)C=C2
[1]
  AC50: 17.8 µM [falling, partial curve, poor fit]

## Cc1ccc(CNc2ncnc3cc(Cl)ccc23)o1
[1]
  AC50: 15.8 µM [rising, partial curve, poor fit]
[2]
  AC50: 12.6 µM [rising, partial curve]

## COc1cc(/C=C/C(=O)OCC(=O)NC(=O)NC(C)C)cc(OC)c1OC
[2]
  AC50: 6.31 µM [rising, single point]

## Cc1cccc(C)c1NC(=O)CCn1cnc2ccccc2c1=O
[1]
  AC50: 0.0447 µM [rising, full curve, poor fit]

## Cc1ccccc1N=CC=C1OC(C)(C)C(C)(C)O1
[2]
  AC50: 11.2 µM [rising, single point]

## Clc1ccc(OCCCNCc2ccccc2)c(Br)c1
[1]
  AC50: 25.1 µM [falling, single point]
[2]
  AC50: 25.1 µM [falling, partial curve]
